Source: PubChem BioAssay AID504834 (National Center for Advancing Translational Sciences (NCATS), 2011)
About 22,000 (6.9%) of roughly 320,000 compounds were called active. The inconclusive results got no clear call from the source; some entries with a clear call stand among them for comparison. Calls follow the shape of the dose curve; as a rule, active = well fitted inhibition curve with a large enough effect; inconclusive = small, poorly fitted or top-dose-only effect, or another doubt; inactive = no such curve, though single readings can be large or run the other way. Where the call is inconclusive, the potency comes from a doubtful curve fit.
% is scaled to controls: 0 for no effect and ±100 for the full control effect; potency is read from the fitted curve at half-maximal effect.

Assay: Primary qHTS for delayed death inhibitors of the malarial parasite plastid, 96 hour incubation
Settings: P. falciparum luciferase reporter growth; series mostly up to 28.7 µM; activity change, negative = inhibition: at the top concentration
Outline: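 Parasite growth measured via integrated firefly luciferase reporter in P. falciparum. Infected erythrocytes at 2% hematocrit, 0.05% parasitemia final were treated 96 hours at 37 C under 5% CO2, and luminescence was read.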
With `CCn1c(SCC(=O)Nc2cccc(O)c2)nc2c1c(=O)n(C)c(=O)n2C` the Potency was inconclusive: 13.1 µM [inhibitor, single point]. With `COC(=O)C(=Cc1ccc(-c2ccsc2C(=O)OC)o1)C(=O)OC` the “activity change, negative = inhibition” value was inactive: -15%. With `CC(C)c1ccc(-n2nnnc2SCC(=O)NC2CC2)cc1` the Potency was inconclusive: 10.4 µM [inhibitor, single point]. In the case of `CN(C)C1NC(=O)c2cc(-c3ccccc3)sc2N1` (stereo not given), the “activity change, negative = inhibition” value is reported as inactive: 5.48%. In the case of `CCOc1ccc(C(C)=O)cc1CN1C(=O)NC2(CCCCCCC2)C1=O`, the Potency is reported as inconclusive: 6.57 µM [inhibitor, single point]. With `CC(OC(=O)c1ccccc1NCc1ccco1)C(=O)Nc1ncc(Cl)cc1Cl` (stereo not given) the Potency was inconclusive: 18.5 µM [inhibitor, single point]. For `CN(C)/C=C/C(=O)c1ccc(N2CCN(c3ncc(C(F)(F)F)cc3Cl)CC2)cc1`, the Potency was inconclusive: 2.62 µM [inhibitor, partial curve, poor fit]. For `C=CCOc1cccc(/C=C\c2nc(O)c([N+](=O)[O-])c(=O)[nH]2)c1`, the Potency was inconclusive: 9.28 µM [inhibitor, single point]. For `O=C(NCc1ccccc1CN1CCCC1)c1cccc(S(=O)(=O)N2CCOCC2)c1`, the Potency was inconclusive: 13.1 µM [inhibitor, partial curve, poor fit]. With `Cc1ccc(S(=O)(=O)NCCc2nc3ccccc3[nH]2)cc1` the Potency was inconclusive: 4.65 µM [inhibitor, partial curve]. With `O=C(CSc1ncc(-c2ccccc2)nn1)NCc1ccco1` the “activity change, negative = inhibition” value was inactive: 6.26%. In the case of `CCNc1nc(NC(C)C)nc(N(C#N)C(C)C(=O)N(CC)CC)n1` (stereo not given), the “activity change, negative = inhibition” value is reported as inactive: -25.2%. In the case of `COc1ccc(OC)c(NC(=O)NC2(C(F)(F)F)Oc3ccccc3O2)c1`, the Potency is reported as inconclusive: 11.7 µM [inhibitor, single point]. With `COc1ccccc1N(C)S(=O)(=O)c1ccc(C(=O)NC2CCCCC2)cc1` the Potency was inconclusive: 16.5 µM [inhibitor, partial curve, poor fit]. With `CC(=O)N1CN2CN(C1)CN(C(C)=O)C2` the Potency was inconclusive: 18.5 µM [inhibitor, single point]. For `COc1ccc(NC(=O)CSc2nnc(-c3ccoc3C)n2CC2CCCO2)cc1` (stereo not given), the Potency was inconclusive: 11.7 µM [inhibitor, single point]. For `COc1ccc(N(C)S(=O)(=O)c2cccc(C(=O)N3CCN(S(=O)(=O)c4ccc(C)cc4)CC3)c2)cc1`, the Potency was active: 2.62 µM. For `Cc1ccc(NC(=O)CCSc2nnc3ccccn23)cc1`, the “activity change, negative = inhibition” value was inactive: -1.62%. For `CC(CNC(=O)COc1ccccc1)OC(=O)Nc1ccc(Cl)c(Cl)c1` (stereo not given), the Potency was inconclusive: 11.7 µM [inhibitor, single point]. For `CCn1c(Cc2cccs2)nnc1SCC(=O)NC(C)(C)C`, the Potency was inconclusive: 1.04 µM [inhibitor, partial curve, poor fit]. With `CCOC(=O)c1ccc(NC(=O)CSc2nnc(CC)o2)cc1` the “activity change, negative = inhibition” value was inactive: 17.5%. For `CCOc1cccc(C2C(C(=O)c3ccc(C)o3)=C(O)C(=O)N2c2nccs2)c1` (stereo not given), the Potency was inconclusive: 5.22 µM [inhibitor, partial curve, poor fit]. With `CC(=O)N1c2ccc(S(=O)(=O)NCC3CCC(C(=O)NCc4ccco4)CC3)cc2CC1C` (stereo not given) the Potency was inconclusive: 0.738 µM [inhibitor, partial curve, poor fit]. In the case of `O=C(Nc1nccs1)c1cccc(S(=O)(=O)N2CCCCC2)c1`, the Potency is reported as active: 14.7 µM. In the case of `CCOc1ccc(CCNC(=O)CN2C(=O)CCSc3ccccc32)cc1OCC`, the Potency is reported as active: 0.185 µM. In the case of `Cc1cc(C(=O)NCc2nc(-c3ccccc3)no2)ccc1[N+](=O)[O-]`, the “activity change, negative = inhibition” value is reported as inactive: 4.6%. For `COc1ccc(NC(=O)C(=O)NCC2CCCN2S(=O)(=O)c2cc(C)ccc2C)cc1` (stereo not given), the Potency was inconclusive: 16.5 µM [inhibitor, single point]. In the case of `Cc1ccc(-n2ncc3c(NCc4cccnc4)ncnc32)c(C)c1`, the Potency is reported as inconclusive: 7.38 µM [inhibitor, partial curve]. With `O=C(NC(=S)NNC(=O)c1cc2ccccc2cc1O)c1ccco1` the Potency was inconclusive: 13.1 µM [inhibitor, single point]. In the case of `O=C1Nc2cc(C(=O)N3CCOCC3)ccc2S/C1=C\c1ccccc1`, the “activity change, negative = inhibition” value is reported as inactive: 54.2%. For `CCc1cccc(C)c1NC(=O)CSc1nc2ccncc2[nH]1`, the “activity change, negative = inhibition” value was inactive: 29.1%. For `O=C(c1ccc(CSc2nc3ccncc3[nH]2)cc1)N1CCN(c2cccc(Cl)c2)CC1`, the Potency was inconclusive: 18.5 µM [inhibitor, single point]. With `Cc1cc(C)n(C2CCCCC2OC(=O)CCc2ccccc2)n1` (stereo not given) the Potency was inconclusive: 9.28 µM [inhibitor, partial curve, poor fit]. For `O=C(Nc1ccccc1)Nc1ccc(Oc2cccnc2)nc1`, the “activity change, negative = inhibition” value was inactive: 21.8%. With `Cc1ccc(C(=O)N2CCN(c3ccc(NC(=O)COc4ccccc4C)cc3)CC2)cc1` the Potency was inconclusive: 13.1 µM [inhibitor, single point]. In the case of `CC(=O)N1CCC(C(=O)Nc2ccc3c(c2)CCC3)CC1`, the Potency is reported as inconclusive: 6.57 µM [inhibitor, partial curve]. In the case of `CC1CCc2c(sc(NC(=O)CCc3nc4ccccc4c(=O)[nH]3)c2C#N)C1` (stereo not given), the Potency is reported as inconclusive: 3.29 µM [inhibitor, partial curve]. With `O=C1CN=C(c2ccc(Br)cc2)c2c(sc3c2CCCC3)N1CCN1CCCCC1` the “activity change, negative = inhibition” value was inactive: 42.1%. For `CN(CC(=O)Nc1ccc(Cl)c(Cl)c1)C(=O)c1cccc2cccnc12`, the “activity change, negative = inhibition” value was inactive: 19.6%. In the case of `Cc1ccccc1C(=O)Nc1ccc2c(c1)nc(CCNC(=O)c1ccco1)n2C`, the Potency is reported as inconclusive: 11.7 µM [inhibitor, single point]. For `CC1=C(C(=O)OC(C)C)C(c2ccco2)NC(=O)N1` (stereo not given), the Potency was inconclusive: 0.465 µM [inhibitor, full curve, poor fit]. In the case of `O=C(NCCC1=CCCCC1)C(=O)NCC(c1ccco1)N1CCN(c2ccccc2F)CC1` (stereo not given), the Potency is reported as inconclusive: 11.7 µM [inhibitor, single point]. With `O=C1c2cccnc2C(=O)N1Cc1ccc(Cl)cc1` the Potency was active: 1.65 µM. For `O=S(=O)(Nc1ccc2c(c1)nc1n2CCN(Cc2ccccc2)C1)c1ccccc1`, the “activity change, negative = inhibition” value was inactive: 38.8%. For `O=C(O)c1cccc(NC(=O)c2cc(-c3cccc(Cl)c3)nc3ccccc23)c1`, the Potency was inconclusive: 18.5 µM [inhibitor, single point].
